Among the data in publication PMC3388046 are binding values, retold here.

Chains of the proteins cited; added tags and fusions are not shown. Lines headed by an entry give the natural chain unless they say otherwise; changes in a name come on top.
UniProt P01042: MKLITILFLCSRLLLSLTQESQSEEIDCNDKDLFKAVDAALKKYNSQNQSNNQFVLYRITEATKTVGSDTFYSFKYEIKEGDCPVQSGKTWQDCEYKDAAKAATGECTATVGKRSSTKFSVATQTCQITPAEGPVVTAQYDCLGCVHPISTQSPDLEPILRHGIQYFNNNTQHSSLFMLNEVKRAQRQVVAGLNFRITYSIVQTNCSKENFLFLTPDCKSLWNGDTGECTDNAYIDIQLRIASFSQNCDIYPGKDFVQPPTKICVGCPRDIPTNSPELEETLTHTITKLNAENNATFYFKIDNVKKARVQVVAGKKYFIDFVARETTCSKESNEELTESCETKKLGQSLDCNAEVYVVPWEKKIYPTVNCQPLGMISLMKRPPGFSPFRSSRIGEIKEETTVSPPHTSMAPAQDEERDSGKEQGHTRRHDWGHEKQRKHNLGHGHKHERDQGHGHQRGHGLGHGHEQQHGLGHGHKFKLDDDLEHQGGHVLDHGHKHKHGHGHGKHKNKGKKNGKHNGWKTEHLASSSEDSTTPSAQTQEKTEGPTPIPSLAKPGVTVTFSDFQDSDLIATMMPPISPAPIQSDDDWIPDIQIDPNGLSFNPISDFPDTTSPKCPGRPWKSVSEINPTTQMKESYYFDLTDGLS
UniProt P02792: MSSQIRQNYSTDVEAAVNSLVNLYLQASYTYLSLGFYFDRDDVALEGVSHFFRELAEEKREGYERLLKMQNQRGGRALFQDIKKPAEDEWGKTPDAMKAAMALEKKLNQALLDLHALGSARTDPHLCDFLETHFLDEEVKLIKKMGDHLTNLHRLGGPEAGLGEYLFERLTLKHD

Results are given in words; binding and its absence hold for the method and conditions named. A result given as binding can be weak or reduced; the word gives no strength.

The assay concerns the target GST-tagged domain 5 of HKa (human) (UniProt P01042). The experiment in a line: pull-down; 10 µg GST-D5 or GST incubated with 20 µg biotinylated HFt or LFt on Protein G Sepharose at 4°C overnight, anti-GST antibody added for 2 hr at 4°C; blot with streptavidin-HRP and anti-GST; both purified.

Take “recombinant human ferritin L homopolymer (from UniProt P02792 1-175)”: the binding entry is recorded as “binds”. Regarding “recombinant human ferritin H homopolymer (from UniProt P02794 1-183)”, the binding result is “binds”.
